# According to patent US5190919A, “Antihemostatic Factor VII peptides” (Board of Regents, The University of Texas System, priority 1989, dated 1993):
# At least one peptide structure holds a part that was inferred or is arguable (an end, a ring closure or a residue). Ends that are not written are not given here.
# Tested on: Factor VII-tissue factor complex
# Test: Rate of Factor X activation, two-stage chromogenic (amidolytic) assay with purified proteins
# Assay type: biochemical, human
# Details: Table 4, derivatives of inhibitory peptides; read-out: CI50, concentration of peptide inhibiting the rate of Factor Xa activation by 50%
# Protocol: 3. Rate of Factor X activation: The effect of the synthetic peptides on the rate of activation of Factor X was analyzed in a purified system employing chromogenic assays. For the inhibition experiments, peptides were diluted in 20 mM Tris-HCl, 150 mM NaCl, pH 7.4 (TBS) and preincubated with 10 microliters each of Factor X (180 nM) and tissue factor (0.075%) at 37 degrees Centigrade in a total volume of 140 microliters adjusted with TBS containing 1% bovine serum albumin (BSA) and 5 mM CaCl2. After 30 minutes, Factor X activation was initiated by the addition of 10 microliters of Factor VII (2 pM). […] The rate of Factor Xa formation was calculated from the slope of linear regression of data plotted as a function of the initial rate of hydrolysis (OD405 /min) versus time and expressed as OD405 /min^2.
# 5. Inhibition assays: The inhibition of Factor VII function was determined in the two-stage chromogenic assay described in Example I-A, 3. […] Following the addition of Factor VII, the rate of Factor Xa generation was determined and the percent of Factor X activation in the presence of different concentrations of Factor VII peptides relative to buffer controls was calculated. Analogous determinations of the CI50 values were measured in the specific coagulation assay outlined above. […]
sequence,measurement,value
"VRFSLVSGWGQ [Peptide 276-286, VRFSLVSGWGQ]",IC50,16 µM
